# Measured values from patent publication US8158317B2, “Azo dye compound, coloring composition, ink sheet for thermal transfer recording, thermal transfer recording method, color toner, ink for inkjet, and color filter” (FUJIFILM Corporation, priority 2006, dated 2012).
# Some compounds share one wording; it may come from a single statement.
# Experiment: Transferability: status A reflection density at solid density area of thermal transfer image
# Details: status A reflection density at solid density (100% dot density) area; thermal head 0.25 W/dot; three ranks
# Protocol: The ink sheet 1 and the image-receiving material produced in the manner as above were stuck together in such a manner that the dye-donating layer could face the image-receiving layer. This was tested for printing, using a thermal head applied to the back of the dye-donating material. The output of the thermal head was 0.25 W/dot, the pulse width thereof was from 0.15 to 15 msec, and the dot density was 6 dots/mm. Thus, a yellow dye was imagewise given to the image-receiving layer of the image-receiving material, and a sharp image was recorded thereon with no transfer unevenness. The ink sheets 2 to 8 were tested for image printing, in the same manner as that for the ink sheet 1.
# The status A reflection density at the solid density (100% dot density) area of each of the thus-formed images was measured, and the samples were evaluated for the transferability in three ranks. Those having a reflection density of at least 1.8 are A (very good); those having a reflection density of from 1.6 to less than 1.8 are B (good); and those having a reflection density of from 1.0 to less than 1.6 are C (acceptable).
row,Compound,Transferability
1,CN(C)C(=O)n1c(/N=N/c2c(C(C)(C)C)nn(C)c2N)nc(C#N)c1C#N [(2)],A (Those having a reflection density of at least 1.8 are A (very good))
2,CC(=O)n1c(/N=N/c2c(C(C)(C)C)nn(C)c2N)nc(C#N)c1C#N [(3)],A (Those having a reflection density of at least 1.8 are A (very good))
3,Cn1nc(C(C)(C)C)c(/N=N/c2nc(C#N)c(C#N)n2C(=O)c2ccccc2)c1N [(4)],A (Those having a reflection density of at least 1.8 are A (very good))
4,COC(=O)n1c(/N=N/c2c(C(C)(C)C)nn(C)c2N)nc(C#N)c1C#N [(5)],A (Those having a reflection density of at least 1.8 are A (very good))
5,"CC(C)(C)c1nn(-c2ccccc2)c(N)c1/N=N/c1ccc([N+](=O)[O-])cc1 [Comparative Dye 1, reference compound]",B (those having a reflection density of from 1.6 to less than 1.8 are B (good))
6,"CCN(CC)C(=O)n1c(/N=N/c2ccc(N(CC)CC)cc2NC(C)=O)nc(C#N)c1C#N [Comparative Dye 2, reference compound]",A (Those having a reflection density of at least 1.8 are A (very good))
7,"Cn1nc(C(C)(C)C)c(/N=N/c2nc(C#N)c(C#N)[nH]2)c1N [Comparative Dye 3, reference compound]",C (those having a reflection density of from 1.0 to less than 1.6 are C (acceptable))
8,"CCN(CCOc1ccc(C2CCCCC2)cc1)c1ccc(C=C(C#N)C#N)c(C)c1 [Comparative Dye 4, reference compound]",A (Those having a reflection density of at least 1.8 are A (very good))
9,"CCCCN(CCCC)C(=O)c1ccc2c(c1)C(=O)C(c1nc3ccc(C(C)C)cc3cc1O)C2=O (stereo not shown) [Comparative Dye 5, reference compound]",C (those having a reflection density of from 1.0 to less than 1.6 are C (acceptable))
10,CCN(CC)C(=O)n1c(/N=N/c2c(C(C)(C)C)nn(C)c2N)nc(C#N)c1C#N [Compound (1)],A (Those having a reflection density of at least 1.8 are A (very good))
